In PubChem BioAssay AID2685 (National Center for Advancing Translational Sciences (NCATS), 2010):
Out of some 320,000 compounds screened, about 2,100 (0.66%) were called active. This list was built around the results that the source calls inconclusive (neither active nor inactive); the mix of calls is not that of the screen. Calls come from the whole dose curve; as a rule, active = well fitted inhibition curve with a large enough effect in the signal ratio, with a control signal flat (not every such curve was filed as active); inconclusive = small, poorly fitted or top-dose-only effect, or effect the other way, or a change in a side signal; inactive = flat fitted curve, though single readings scatter; the % refers to the signal ratio. Potencies beside an inconclusive call are fits to weak or partial responses and may not hold up.

Assay: qHTS Assay for Lipid Storage Modulators in Drosophila S3 Cells
Settings: BODIPY lipid droplet fluorescence, 18-24 h, cells fed with added oleic acid; lipid storage change, negative = inhibition: at 46.1 µM (top of the series) unless noted
Summary of the method: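 Drosophila S3 cells loaded with oleic acid (400 uM, as added) and compounds at several concentrations; lipid droplets imaged by 488-nm laser-scanning cytometry, 500–530 nm intensity and object ratio to cell channel. Percent activity normalized to 20 uM Triacsin C.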
% is set by controls: 0 for no effect and ±100 for the full control effect; potency is the fitted concentration of half-maximal effect.

Row | Structure (SMILES) | lipid storage change, negative = inhibition | Potency | outcome
1 | Fc1ccc(NC(=S)N2CCN(C/C=C/c3ccccc3)CC2)c(F)c1 | inconclusive: -58.2% |  | 
2 | CCNC(=O)n1nccc1C(C)Oc1ccccc1 (stereo not given) | inactive: 7.19% |  | 
3 | CCC(C)[C@H](N)c1nnc(SCc2cccc(F)c2)o1 (stereo not given in full) | inconclusive: 47% |  | 
4 | CCCCSc1nc(N)c(C#N)c(-c2cccs2)c1C#N |  | inconclusive: 1.84 µM [activator, partial curve] | 
5 | CCOC(=O)c1c(NC(=O)C(C)OC(=O)c2ccc(NC(=O)CC#N)cc2)sc2c1CCCC2 (stereo not given) | inconclusive: 38.7% |  | 
6 | CCOC(=O)C1=C(COC(=O)Cc2ccccc2F)NC(=O)NC1C (stereo not given) | inconclusive: -3.82% |  | 
7 | Cc1cc(C)nc(Nc2cccc3ccccc23)n1 |  | inconclusive: 25.9 µM [activator, single point] | 
8 | CCOC(=O)C1=C(C)N(Cc2ccc(C(=O)O)cc2)C(=O)NC1c1ccc([N+](=O)[O-])cc1 (stereo not given) | inconclusive: -15.4% |  | 
9 | COC(=O)c1sc(S(=O)(=O)Nc2ccc3cn[nH]c3c2)c(C(=O)OC)c1C | inconclusive: 88.1% |  | 
10 | Cc1ccc(C(=O)N2CCN(C)CC2)cc1S(=O)(=O)N1CCCCC1 | inconclusive: 41.1% |  | 
11 | CCc1nc(SCC(=O)Nc2cc(C)on2)n[nH]1 | inconclusive: 23.9% |  | 
12 | Cc1oc2c(cc(NS(=O)(=O)c3ccc(C(C)C)cc3)c3ccccc32)c1C(=O)O |  | inconclusive: 0.164 µM [falling, single point] | 
13 | CN(C)S(=O)(=O)c1cccc(C(=O)Nc2ccc(S(=O)(=O)N3CCCC3)cc2)c1 |  | inconclusive: 2.59 µM [activator, single point] | 
14 | CSc1cccc(NC(=O)CCc2ccccc2)c1 | inconclusive: -3.2% |  | 
15 | Cc1cccc(Oc2nc(CN3CCOCC3)nc3sc4c(c23)CCCC4)c1 |  | inconclusive: 16.4 µM [activator, single point] | 
16 | O=C(COC(=O)CCCNC(=O)c1ccc(Cl)cc1)NC1CC1 | inconclusive: 10.4% |  | 
17 | O=S(=O)(c1cccs1)N1CN(Cc2ccccc2)c2nc3ccccc3nc21 | inconclusive: -27.1% |  | 
18 | COC(=O)C1=C(O)/C(=C\c2ccc(CNC(=O)C(=O)Nc3ccc(C)cc3)o2)N=C1C | inconclusive: 4.69% |  | 
19 | Cc1ccc(-c2cc(C(=O)N3CCOCC3)no2)cc1 | inconclusive: 7.8% |  | 
20 | COc1cccc(NC(=O)C(Sc2nnc(Nc3ccccc3C)s2)c2ccccc2)c1 (stereo not given) | inconclusive: 31.1% |  | 
21 | CC(C)CN(C(=O)COC(=O)Cc1cccc2ccccc12)c1c(N)n(Cc2ccccc2)c(=O)[nH]c1=O | inconclusive: 55.1% |  | 
22 | COc1cc(-c2nc3cnccn3c2Nc2ccc(C)cc2)ccc1O | inconclusive: 76.6% |  | 
23 | O=C(O)c1ccccc1P(=O)(c1ccccc1)c1ccccc1 |  | inconclusive: 29.1 µM [falling, single point] | 
24 | COc1ccc(NC(=O)CCS(=O)(=O)c2ccc3c(c2)NC(=O)C(C)S3)cc1OC (stereo not given) | inconclusive: 56.5% |  | 
25 | COc1ccccc1NS(=O)(=O)c1ccc(Cl)c(NC(=O)CN2C(=O)c3ccccc3C2=O)c1 | inconclusive: 16.2% |  | 
26 | Cc1cc2c(cc1S(=O)(=O)N1CCN(c3cccc(C)c3C)CC1)OCC(=O)N2 |  | inconclusive: 8.2 µM [falling, partial curve, poor fit] | 
27 | COc1ccccc1OCc1ccc(C(=O)NCC2CCCO2)cc1 (stereo not given) | inconclusive: 8.18% |  | 

Row | Structure (SMILES) | lipid storage change, negative = inhibition | Potency | outcome
28 | CCn1c(N2CCN(C(=S)NCCc3ccccc3)CC2)nc2ccccc21 |  | inconclusive: 16.4 µM [cytotoxic, single point] | 
29 | COCCNC(=O)CCC1CCN(C/C=C/c2ccccc2OC)CC1 |  | inconclusive: 5.8 µM [falling, single point] | 
30 | C/C(=N\NC(=O)c1cccc(S(=O)(=O)N2CCCC2)c1)c1ccncc1 |  | inconclusive: 0.259 µM [activator, full curve] | 
31 | COC(=O)CN1C(=O)C2(C(C#N)=C(N)Oc3n[nH]c(-c4cccs4)c32)c2ccccc21 (stereo not given) | inconclusive: 12.9% |  | 
32 | CN(Cc1nc2ccccc2c(=O)[nH]1)c1ccccc1 | inconclusive: 21.9% |  | 
33 | COC(=O)c1ccc(N2CCC(c3cc(-c4ccc(OC)cc4)n[nH]3)CC2)c([N+](=O)[O-])c1 | inconclusive: -21.6% |  | 
34 | Cc1cc(F)ccc1NC(=O)CCc1ccc(S(=O)(=O)N2CCOCC2)cc1 | inconclusive: 12.7% |  | 
35 | O=C1N=c2ccccc2=C1c1sc(NS(=O)(=O)Cc2ccccc2)nc1O | inconclusive: 15% |  | 
36 | O=C(Cc1cccs1)NCc1ccc(Cl)cc1Cl |  | inconclusive: 20.6 µM [falling, single point] | 
37 | CN(C)C(=O)Cn1cc(S(=O)(=O)Cc2ccccc2)c2ccccc21 |  | active: 0.651 µM | 
38 | Fc1ccc(COc2ccccc2-c2ccnc3ncnn23)cc1 | inconclusive: 24.2% [at 9.22 µM] |  | 
39 | CCSc1cc(N2CCOCC2)nc(-c2ccccc2)n1 | inconclusive: -0.74% |  | 
40 | O=C(O)Cn1c(CCS(=O)(=O)c2ccc(Br)cc2)nc2ccccc21 | inconclusive: 2.76% |  | 
41 | COc1cc2c(cc1OC)C(c1cccc(Cl)c1Cl)CC(=O)N2 (stereo not given) | inactive: -8.05% |  | 
42 | O=C1C2C3C=CC(C3)C2C(=O)N1/N=C/c1cn(Cc2ccccc2)c2ccccc12 (stereo not given) | inconclusive: -17% |  | 
43 | O=C(/C=C/c1ccccc1[N+](=O)[O-])N1CCCCC1 | inconclusive: 3.17% |  | 
44 | COC(=O)c1ccccc1N=Nc1c(N)n[nH]c1N | inconclusive: -0.318% |  | 
45 | CCc1ccc(CNC(=O)CCCn2c(=O)c3cccn3c3cccnc32)cc1 |  |  | inactive [at 46.1 µM]
46 | Cc1ccccc1-n1c(C)nnc1SCC(=O)N(C)C1CCS(=O)(=O)C1 (stereo not given) |  | inconclusive: 29.1 µM [rising, single point] | 
47 | CC(C)CCNC(=O)/C=C/c1ccc(Br)cc1 | inconclusive: 19.1% |  | 
48 | CC(NC(=O)COC(=O)c1ccc(CO)cc1)C1CC2CCC1C2 (stereo not given) | inconclusive: -2.17% |  | 
49 | Cc1c(CCO)c(=O)[nH]n1C(=O)c1ccc(F)cc1 | inconclusive: 6.07% |  | 
50 | CC(C)CCn1c(SCc2ccc(Cl)cc2)nc2c1c(=O)[nH]c(=O)n2C | inconclusive: 20.6% |  | 
51 | Cc1nc2cc(C(=O)OCC(=O)Nc3ccc(C#N)cc3)ccc2n1-c1ccccc1 | inconclusive: 31.2% |  | 
52 | CCOc1ccc(C2=Nn3c(nnc3-c3ccc(OC)cc3)SC2)cc1 | inconclusive: 52.3% |  | 
53 | COc1cc(C(=O)NC2CCCc3ccccc32)cc(OC)c1C (stereo not given) | inconclusive: 231% |  | 
54 | CCOC(=O)N1CCN(C(=O)CSCC(=O)Nc2nc(-c3ccc4c(c3)OCO4)cs2)CC1 |  | inconclusive: 29.1 µM [falling, single point] | 

A second format for part of the listing above:
Row,Structure (SMILES),"lipid storage change, negative = inhibition",Potency,outcome
49,Cc1c(CCO)c(=O)[nH]n1C(=O)c1ccc(F)cc1,inconclusive: 6.07%,,
50,CC(C)CCn1c(SCc2ccc(Cl)cc2)nc2c1c(=O)[nH]c(=O)n2C,inconclusive: 20.6%,,

(further entries)

Row | Structure (SMILES) | lipid storage change, negative = inhibition | Potency | outcome
55 | O=C(O)C1C(c2ccccc2)C(C(=O)N2CCOCC2)C1c1ccccc1 (stereo not given) | inconclusive: -7.68% |  | 
56 | CC1SC(=NC(=O)c2ccncc2)NC1=O (stereo not given) | inconclusive: 0.186% |  | 
57 | CCCCC(=O)Nc1cc(-c2nc3ncccc3o2)ccc1C | inconclusive: 8.52% [at 9.22 µM] |  | 
58 | CC1CN(C(=O)CN2C(=O)c3ccccc3C2=O)CC(C)O1 (stereo not given) |  | active: 23.1 µM | 
59 | COc1ccc(NC(=O)C2CC(c3ccc(OC)c(OC)c3)=NO2)cc1OC (stereo not given) | inconclusive: 19.7% |  | 
60 | O=C(NNC(=O)C12CC3CC(CC(C3)C1)C2)c1ccccc1F | inconclusive: 53.7% |  | 
61 | CC(=O)N1CCN(c2ccc([N+](=O)[O-])c(-n3nc(C)cc3C)c2)CC1 |  | inconclusive: 0.164 µM [falling, full curve] | 
62 | Cc1ccc(C2=NOC(=O)/C2=C\c2ccc(C)o2)cc1 | inconclusive: -23.9% |  | 
63 | COc1ccc(CNC(=O)c2ccc(NC(=O)C3CCCO3)cc2)cc1 (stereo not given) | inconclusive: 80.1% |  | 
64 | O=c1c(Cc2ccccc2)c(O)ccn1C1CCCCCCC1 |  | inconclusive: 35.5 µM [falling, single point] | 
65 | COc1ccc(/C=N/OCC(=O)Nc2nc3ccccc3s2)cc1OC | inconclusive: 36.5% |  | 
66 | CCn1cnc2c1c(=O)n(CC(=O)N1CCc3ccccc31)c(=O)n2Cc1ccccc1 | inconclusive: -5.86% |  | 
67 | Cc1onc(-c2ccccc2)c1C(=O)N/N=C/c1cccc(O)c1 | inconclusive: 22.7% |  | 
68 | COc1ccc(CN2C(=O)c3cccnc3C2=O)cc1S(=O)(=O)NCc1ccco1 | inconclusive: -93.1% |  | 
69 | CC(=O)Nc1ccc(Nc2nc(Cl)nc(Nc3ccc(NC(C)=O)cc3)n2)cc1 | inconclusive: 8.12% |  | 
70 | CCOCCCNCc1cc(Cl)ccc1OCC | inconclusive: 17.6% |  | 
71 | O=C(CCSc1nc2ccccc2s1)N/N=C/c1c(O)ccc2ccccc12 | inconclusive: -53.3% |  | 
72 | Cc1sc2nc(CSCC(=O)N3CC(C)OC(C)C3)[nH]c(=O)c2c1C (stereo not given) | inconclusive: 26.2% |  | 
73 | CN(C)/C=C/C(=O)c1c(F)cccc1F | inconclusive: -31.7% |  | 
74 | CC1CC(C)CN(C(=O)CCNS(=O)(=O)c2cccs2)C1 (stereo not given) | inconclusive: 12.9% |  | 
75 | COc1ccc(O[C@H]2C=C[C@@H](c3ccccc3)O[C@@H]2COC(=O)CC/C(C)=N/O[C@@H](C)CN2CCCCc3nc(C)c(C)cc32)cc1 | inconclusive: -0.759% |  | 
76 | CCN(CC)S(=O)(=O)c1cccc(-c2nnc(SCc3nnc(-c4ccccc4)o3)n2C)c1 |  | inconclusive: 1.64 µM [activator, partial curve] | 
77 | CCN1CCN(C2CCN(C(C)=O)CC2)CC1 | inconclusive: 86.5% |  | 
78 | O=C(CN1CCCC1)Nc1ccc(OC(F)(F)F)cc1 | inconclusive: 6.69% |  | 
79 | COc1ccc(C2C(C(C)=O)=C(O)C(=O)N2CCc2ccccc2)c(OC)c1 (stereo not given) |  | inconclusive: 32.6 µM [falling, single point] | 
80 | COc1ccc(NC(=O)c2c(NC(=O)CNCc3ccco3)sc3c2CCC3)c(OC)c1 |  | inconclusive: 6.51 µM [rising, single point] | 

3 entries out of the list, arranged by SMILES length, descending:
Row | Structure (SMILES) | lipid storage change, negative = inhibition | Potency | outcome
65 | COc1ccc(/C=N/OCC(=O)Nc2nc3ccccc3s2)cc1OC | inconclusive: 36.5% |  | 
74 | CC1CC(C)CN(C(=O)CCNS(=O)(=O)c2cccs2)C1 (stereo not given) | inconclusive: 12.9% |  | 
73 | CN(C)/C=C/C(=O)c1c(F)cccc1F | inconclusive: -31.7% |  | 
